# Measured values taken from doi:10.1101/2024.12.01.626218.
# By UniProt entry, the sequences of proteins in these tests, tags left out. Where a name states a change or a piece, a line headed by the entry shows the natural chain unless it says otherwise.
# UniProt Q8VIG6: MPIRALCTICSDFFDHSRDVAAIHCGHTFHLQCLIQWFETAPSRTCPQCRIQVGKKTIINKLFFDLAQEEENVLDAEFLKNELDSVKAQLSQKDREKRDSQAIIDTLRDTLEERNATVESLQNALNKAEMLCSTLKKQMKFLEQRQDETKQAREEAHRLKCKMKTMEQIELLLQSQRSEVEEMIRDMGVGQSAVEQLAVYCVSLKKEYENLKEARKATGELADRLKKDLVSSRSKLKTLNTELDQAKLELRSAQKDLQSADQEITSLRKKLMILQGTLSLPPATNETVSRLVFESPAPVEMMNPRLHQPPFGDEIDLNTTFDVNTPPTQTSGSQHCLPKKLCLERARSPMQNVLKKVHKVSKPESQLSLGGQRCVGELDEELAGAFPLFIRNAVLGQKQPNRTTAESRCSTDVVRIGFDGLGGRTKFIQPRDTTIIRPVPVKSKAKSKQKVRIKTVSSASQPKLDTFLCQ
# Results are given in words; binding and its absence hold for the method and conditions named. Binding seen in cells or lysates may run through a third protein.
# Target: TRAIP-5FLAG with TRAIP-T325 mutated (mouse) (UniProt Q8VIG6)
# Test: co-IP
binder,measurement,value
"TTF2 (Transcription Termination Factor 2) (enzyme, UniProt Q5NC05 1-1138) MDLVKCPEHGDACFLKTGVRDGPNKGKSFYVCRTNTCGFVQATDIPVSHCLLHEEFVVELQGLFLPQDKKEWRLFFRCARTKAEGKQWCGNVPWRQDPNPKELSVTSKPQQPSESQLHSPSQPRNPFRVLNKNQKTLERKQFVEEGERKTADKKLRENNEQLLDQRKEQKPKSNSRMEKDPSSDLVATRQSGGDREEQEKSKFQPKTKKAEGMASKQGHGEVLQGIPKGPHMSESESRGVPNKPETLREKETQLLVPSVPGQNPESKVQKEGHVSREPLKNGEAPSAQVTQRGLAQGPLQGPSKTWRPVPEAPAAPELCSGMAHHATSSSEDSEDDGVSSRPGSPLLFDSTVDSQKKGSLQHSDQSVQRQMPAASGVSKKGDSSDPAAQRANLTTQLKQKKGTLAAVNIQALPDKGEKLLKQIQALEDALSALALSPEQGTKEKCSAQEPEQSNITKAAAAPLHLVPPQPLPRPLIQPASSLGLKAGRQETPEGASQCSGGHMNQHHLYNVWKITSEAIDELHRSLKSCPGETAVAEDPAGLKVPLLLHQKQALAWLLWRESQKPQGGILADDMGLGKTLTMIALILTKKNQQKSKEKERSEPVTWLSKNDSSVFTSSGTLIVCPASLIHHWKNEVEKRVTSNRLRIYLYHGPNRSRHAKVLSTYDIVITTYSLLAKEIPTTKQEGEVPGANLSVEGTSAPLLQVVWARIILDEAHNVKNPRVQTSIAVCKLQAQARWAVTGTPIQNNLLDMYSLMKFLRCSPFDEFSLWKSQVDNGSMKGGERLSILTKSLLLRRTKDQLDSTGKPLVALPARRCQLHRLKLSEDERAVYDIFLARSRSALQSYLKRQEGRGSHHGRSPDNPFSRVAQEFGSSVSQGCPAADSQRPSTVHVLSQLLRLRQCCCHLSLLKSALDPTELESEGLVLSLEEQLSALTLSKVDVSEPSPTVSLNGTCFKAELFDDTRRSTKVSSLLAELEAIQKGPGSQKSVIVSQWTSMLQVVALHLKKNRLTYATIDGSVNPKQRMDLVEAFNHSQGPQVMLISLLAGGVGLNLTGGNHLFLLDMHWNPSLEDQACDRIYRVGQKKDVVIHRFVCEGTVEEKILQLQEKKKDLAKQVLSGSEGPVTKLTLADLKILFGI",binding,no binding
